Measurements from PMC10598926.
No constants are given. Whether binding was seen depends on the method and setting. In cells and extracts the contact can be indirect. Some results given as binding are weak or reduced against the parent protein; the word gives no strength.

Chains of the proteins cited; added tags and fusions are not shown.
UniProt P09429: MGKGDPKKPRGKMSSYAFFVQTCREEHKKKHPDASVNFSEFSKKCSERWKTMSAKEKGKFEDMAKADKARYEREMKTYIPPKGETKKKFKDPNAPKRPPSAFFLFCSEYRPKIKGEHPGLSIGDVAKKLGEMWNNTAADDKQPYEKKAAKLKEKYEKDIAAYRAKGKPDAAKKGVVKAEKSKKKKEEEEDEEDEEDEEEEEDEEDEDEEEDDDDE

Key:
[1] = target: T1, HBHP peptide (HMGB1 binding heptamer peptide); experiment: pull-down; biotinylated HBHP or HBHP-scr peptide in Eto-CM of A549 cells, precipitated with Neutravidin Agarose beads; eluates blotted for HMGB1 and Hsp70; only the target purified
T1 sequence (peptide, biotin on N-terminus): HMSKPVQ

[2] = target: T2, HBHP-scr peptide (scrambled HBHP); experiment: as above
T2 sequence (peptide, biotin on N-terminus): PMQSKHV

binding [1]: binds
binding [2]: no binding
Substance: HMGB1 (high mobility group protein B1) of A549 cells (endogenous) (from UniProt P09429 1-215)
